Data taken from patent US8828925B2, “Etoposide and doxorubicin conjugates for drug delivery” (Angiochem Inc., priority 2008, dated 2014).
Where two headings read alike, the source gives them in different places. At least one structure is not confirmed: it was looked up by name or label, or the drawing left a doubt.

Tests used:
U87 cells = experiment: in vitro cell proliferation assay ([3H]-thymidine incorporation), U87; assay type: cell-based, human; details: U-87 Cells, as etoposide equivalents
SK-HEP-1 cells = experiment: in vitro cell proliferation assay ([3H]-thymidine incorporation), SK-HEP-1; details: as etoposide equivalents

## COc1cc([C@@H]2c3cc4c(cc3[C@@H](O[C@@H]3O[C@@H]5CO[C@@H](C)O[C@H]5[C@H](O)[C@H]3OC(=O)CCCC(=O)NCCCC[C@H](NC(=O)CNC(=O)[C@H](CCCNC(=N)N)NC(=O)[C@H](CO)NC(=O)CNC(=O)CNC(=O)[C@H](Cc3ccc(O)cc3)NC(=O)[C@H](Cc3ccccc3)NC(=O)[C@H](Cc3ccccc3)NC(=O)[C@@H](NC(=O)CCCC(=O)O[C@H]3[C@H](O[C@@H]5c6cc7c(cc6[C@@H](c6cc(OC)c(O)c(OC)c6)[C@H]6C(=O)OC[C@@H]65)OCO7)O[C@@H]5CO[C@@H](C)O[C@H]5[C@@H]3O)[C@@H](C)O)C(=O)N[C@@H](CCCNC(=N)N)C(=O)N[C@@H](CC(N)=O)C(=O)N[C@@H](CC(N)=O)C(=O)N[C@@H](Cc3ccccc3)C(=O)N[C@@H](CCCCNC(=O)CCCC(=O)O[C@H]3[C@H](O[C@@H]5c6cc7c(cc6[C@@H](c6cc(OC)c(O)c(OC)c6)[C@H]6C(=O)OC[C@@H]65)OCO7)O[C@@H]5CO[C@@H](C)O[C@H]5[C@@H]3O)C(=O)N[C@H](C(=O)N[C@@H](CCC(=O)O)C(=O)N[C@@H](CCC(=O)O)C(=O)N[C@@H](Cc3ccc(O)cc3)C(=O)O)[C@@H](C)O)[C@H]3COC(=O)[C@H]23)OCO4)cc(OC)c1O [Etop-An2(3:1), ((2″-Glutaryl)-Etop)3-(Angiopep2)]
U87 cells; 24 hours, read-out: IC50 (nM) 24 hours (Etoposide equiv.)
  IC50: 1360 nM
U87 cells; 72 hours, read-out: IC50 (nM) 72 hours (Etoposide equiv.)
  IC50: 492 nM
SK-HEP-1 cells; read-out: IC50 (nM) 24 hours (Etoposide equiv.), SK-HEP-1, 24 hours
  IC50: 480 nM
SK-HEP-1 cells; read-out: IC50 (nM) 48 hours (Etoposide equiv.), SK-HEP-1, 48 hours
  IC50: 168 nM
SK-HEP-1 cells; read-out: IC50 (nM) 72 hours (Etoposide equiv.), SK-HEP-1, 72 hours
  IC50: 156 nM
